From doi:10.1101/2021.12.20.473554 come the findings set out here.

These are yes or no findings as the source states them, for the method shown. In cells and extracts the contact can be indirect. For some assays here: A result given as binding can be weak or reduced; the word gives no strength. Sequences can lack the tags named with a protein.

In test [1] the target is Flag-TSC22D4-ΔD2 (UniProt Q9EQN3). The experiment in a line: co-IP.
Test [2] concerns the target Flag-TSC22D4-ΔTSC (UniProt Q9EQN3). Briefly: co-IP.

B1: full length myc-TSC22D4 (protein, UniProt Q9EQN3 1-387)
chain: MSGGKKKSSFQITSVTTDYEGPGSPGASDSPVPPALAGPPPRLPNGDPNPDPGGRGTPRNGSPPPGAPASRFRVVKLPQGLGEPYRRGRWTCVDVYERDLEPPSFGRLLEGIRGASGGTGGRSLDSRLELASLGISTPIPQPGLSQGPTSWLRPPPTSPGPQARSFTGGLGQLAGPGKAKVETPPLSASPPQQRPPGPGTGDSAQTLPSLRVEVESGGSAAATPPLSRRRDGAVRLRMELVAPAETGKVPPTDSRPNSPALYFDASLVHKSPDPFGAAAAQSLSLARSMLAISGHLDSDDDSGSGSLVGIDNKIEQAMDLVKSHLMFAVREEVEVLKEQIRDLAERNAALEQENGLLRALASPEQLAQLPSSGLPRLGPSAPNGPSI
Regarding B1, the binding result in test [1] is recorded as “binds”; in test [2], “no binding”.
